Here are results for 2 substances from publication PMC7997989.

By UniProt entry, the sequences of proteins in these tests, tags left out.
UniProt Q13148: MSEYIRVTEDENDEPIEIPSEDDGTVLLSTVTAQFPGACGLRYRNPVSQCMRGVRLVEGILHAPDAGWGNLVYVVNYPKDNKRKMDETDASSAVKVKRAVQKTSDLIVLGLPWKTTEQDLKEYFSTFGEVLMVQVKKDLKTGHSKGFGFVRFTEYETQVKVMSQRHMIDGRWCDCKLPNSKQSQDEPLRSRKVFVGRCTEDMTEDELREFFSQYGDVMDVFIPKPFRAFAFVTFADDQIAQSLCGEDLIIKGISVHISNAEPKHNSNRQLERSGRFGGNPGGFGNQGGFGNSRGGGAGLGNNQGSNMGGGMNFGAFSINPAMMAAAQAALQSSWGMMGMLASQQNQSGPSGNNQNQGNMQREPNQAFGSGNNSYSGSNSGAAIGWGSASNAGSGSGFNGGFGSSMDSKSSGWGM

The target in one assay is T1, CHCHD10-HA (WT) (human) (UniProt Q8WYQ3).
T1 sequence: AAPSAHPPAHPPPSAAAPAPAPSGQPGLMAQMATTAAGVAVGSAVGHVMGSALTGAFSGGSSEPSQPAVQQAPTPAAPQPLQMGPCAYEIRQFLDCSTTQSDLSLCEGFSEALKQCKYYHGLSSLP
Kind of assay: co-IP; HEK293T cells co-transfected with HA-tagged CHCHD10 (WT or S59L) and TDP-43-FLAG; NP-40 lysis buffer; anti-FLAG M2 or anti-HA affinity gel overnight at 4 °C (which gel is not told).

Assay [1] concerns the target T2, CHCHD10-HA (S59L) (human) (UniProt Q8WYQ3).
T2 sequence: T1 sequence with S43L
Described as above.

For assay [2], the target named is T3, CHCHD10^S59L-FLAG (human) (UniProt Q8WYQ3).
T3 sequence: T1 sequence with S43L
Kind of assay: co-IP; HEK293T cells co-transfected with CHCHD10-FLAG (WT or S59L) and TDP-43-tomato-HA; NP-40 lysis buffer (20 mM Tris, 137 mM NaCl, 1% NP-40, 2 mM EDTA), sonicated; anti-FLAG M2 affinity gel overnight at 4 °C; blots with anti-FLAG and anti-HA.

A further assay concerns the target T4, CHCHD10^WT-FLAG (human) (UniProt Q8WYQ3).
T4 sequence: T1 sequence
The assay is described as above.

Substitutions are numbered along the chain they refer to. Results are given in words; binding and its absence hold for the method and conditions named. In cells and extracts the contact can be indirect. Some results given as binding are weak or reduced against the parent protein; the word gives no strength. Sequences can lack the tags named with a protein.

TDP-43-FLAG (from UniProt Q13148 1-414): the binding result (with CHCHD10-HA (WT) (human); in assay [1]) was “binds” in each case.

In the case of “TDP-43-tomato-HA (from UniProt Q13148 1-414)”, the binding result (in assay [2]; in the assay with CHCHD10^WT-FLAG (human)) was “binds” throughout.
